The values below come from paper PMC7135998.

Chains of the proteins cited; added tags and fusions are not shown.
UniProt P12004: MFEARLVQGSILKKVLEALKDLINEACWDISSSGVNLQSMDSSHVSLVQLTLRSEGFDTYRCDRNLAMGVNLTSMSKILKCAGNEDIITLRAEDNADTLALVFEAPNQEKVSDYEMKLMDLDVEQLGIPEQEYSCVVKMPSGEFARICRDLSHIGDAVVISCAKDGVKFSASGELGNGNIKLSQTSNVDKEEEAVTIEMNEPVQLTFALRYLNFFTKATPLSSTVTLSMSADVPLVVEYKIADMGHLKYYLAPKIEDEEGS

Test [1] deals with T1, endogenous SET8 (N-lysine methyltransferase 5A) (human (endogenous in HEK293T)) (UniProt Q9NQR1).
T1 sequence: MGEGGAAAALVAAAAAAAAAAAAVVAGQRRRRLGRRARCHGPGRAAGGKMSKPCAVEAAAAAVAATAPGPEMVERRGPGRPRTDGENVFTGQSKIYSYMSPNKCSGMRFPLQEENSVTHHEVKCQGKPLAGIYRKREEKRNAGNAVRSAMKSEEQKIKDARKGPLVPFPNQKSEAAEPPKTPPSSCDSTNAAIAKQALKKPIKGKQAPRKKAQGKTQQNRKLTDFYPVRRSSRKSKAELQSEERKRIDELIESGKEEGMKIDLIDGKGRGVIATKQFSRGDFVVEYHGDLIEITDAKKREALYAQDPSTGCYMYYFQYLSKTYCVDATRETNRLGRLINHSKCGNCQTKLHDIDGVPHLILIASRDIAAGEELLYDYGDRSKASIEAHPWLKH
The test can be described thus: co-IP; 1 mg total HEK293T cellular extract with 5 μg anti-SET8 antibody (Active Motif or Millipore), normal IgG as control, immunoblot; endogenous proteins; also from cells treated with FQI1 (less tubulin co-precipitated, Fig. S4C).

The target of test [2] is T2, endogenous LSF (human (endogenous in HEK293T)) (UniProt Q12800).
T2 sequence: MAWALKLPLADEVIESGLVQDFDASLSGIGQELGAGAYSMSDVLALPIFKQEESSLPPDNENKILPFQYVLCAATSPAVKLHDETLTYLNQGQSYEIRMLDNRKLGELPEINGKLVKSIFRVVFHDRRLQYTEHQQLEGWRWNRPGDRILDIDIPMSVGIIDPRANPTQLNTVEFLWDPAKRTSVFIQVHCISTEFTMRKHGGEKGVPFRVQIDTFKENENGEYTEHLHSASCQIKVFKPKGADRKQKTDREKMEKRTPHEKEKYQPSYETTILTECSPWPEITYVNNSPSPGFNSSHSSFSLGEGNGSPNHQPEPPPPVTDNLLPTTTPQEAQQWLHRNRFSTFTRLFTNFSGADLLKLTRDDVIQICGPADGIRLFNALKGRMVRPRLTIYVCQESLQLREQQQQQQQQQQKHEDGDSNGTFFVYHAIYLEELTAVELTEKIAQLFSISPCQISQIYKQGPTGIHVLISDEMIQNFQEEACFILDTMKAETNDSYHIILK
Put plainly: co-IP; HEK293T cell lysates with anti-LSF antibody (Millipore 17-10252) against control IgG, immunoblot; endogenous proteins; also from cells treated with vehicle or 2.5 μM FQI1 for 24 h (α-tubulin co-precipitate reduced). For orientation: Immunoblotting shows a protein as a band on a membrane.

Results are given in words; binding and its absence hold for the method and conditions named. Binding seen in cells or lysates may run through a third protein. Some results given as binding are weak or reduced against the parent protein; the word gives no strength.

For the molecule “endogenous PCNA (proliferating cell nuclear antigen) (from UniProt P12004 1-261)”, the binding result in test [1] is “binds”.

B1: endogenous LSF (protein, UniProt Q12800 1-502)
chain: MAWALKLPLADEVIESGLVQDFDASLSGIGQELGAGAYSMSDVLALPIFKQEESSLPPDNENKILPFQYVLCAATSPAVKLHDETLTYLNQGQSYEIRMLDNRKLGELPEINGKLVKSIFRVVFHDRRLQYTEHQQLEGWRWNRPGDRILDIDIPMSVGIIDPRANPTQLNTVEFLWDPAKRTSVFIQVHCISTEFTMRKHGGEKGVPFRVQIDTFKENENGEYTEHLHSASCQIKVFKPKGADRKQKTDREKMEKRTPHEKEKYQPSYETTILTECSPWPEITYVNNSPSPGFNSSHSSFSLGEGNGSPNHQPEPPPPVTDNLLPTTTPQEAQQWLHRNRFSTFTRLFTNFSGADLLKLTRDDVIQICGPADGIRLFNALKGRMVRPRLTIYVCQESLQLREQQQQQQQQQQKHEDGDSNGTFFVYHAIYLEELTAVELTEKIAQLFSISPCQISQIYKQGPTGIHVLISDEMIQNFQEEACFILDTMKAETNDSYHIILK
B1: the binding result in test [1] is “binds”.

B2: endogenous SET8 (N-lysine methyltransferase 5A) (protein, UniProt Q9NQR1 1-393)
chain: MGEGGAAAALVAAAAAAAAAAAAVVAGQRRRRLGRRARCHGPGRAAGGKMSKPCAVEAAAAAVAATAPGPEMVERRGPGRPRTDGENVFTGQSKIYSYMSPNKCSGMRFPLQEENSVTHHEVKCQGKPLAGIYRKREEKRNAGNAVRSAMKSEEQKIKDARKGPLVPFPNQKSEAAEPPKTPPSSCDSTNAAIAKQALKKPIKGKQAPRKKAQGKTQQNRKLTDFYPVRRSSRKSKAELQSEERKRIDELIESGKEEGMKIDLIDGKGRGVIATKQFSRGDFVVEYHGDLIEITDAKKREALYAQDPSTGCYMYYFQYLSKTYCVDATRETNRLGRLINHSKCGNCQTKLHDIDGVPHLILIASRDIAAGEELLYDYGDRSKASIEAHPWLKH
As to B2, the binding result in test [2] was “binds”.

B3: endogenous UHRF1 (protein, UniProt Q96T88 1-793)
chain: MWIQVRTMDGRQTHTVDSLSRLTKVEELRRKIQELFHVEPGLQRLFYRGKQMEDGHTLFDYEVRLNDTIQLLVRQSLVLPHSTKERDSELSDTDSGCCLGQSESDKSSTHGEAAAETDSRPADEDMWDETELGLYKVNEYVDARDTNMGAWFEAQVVRVTRKAPSRDEPCSSTSRPALEEDVIYHVKYDDYPENGVVQMNSRDVRARARTIIKWQDLEVGQVVMLNYNPDNPKERGFWYDAEISRKRETRTARELYANVVLGDDSLNDCRIIFVDEVFKIERPGEGSPMVDNPMRRKSGPSCKHCKDDVNRLCRVCACHLCGGRQDPDKQLMCDECDMAFHIYCLDPPLSSVPSEDEWYCPECRNDASEVVLAGERLRESKKKAKMASATSSSQRDWGKGMACVGRTKECTIVPSNHYGPIPGIPVGTMWRFRVQVSESGVHRPHVAGIHGRSNDGAYSLVLAGGYEDDVDHGNFFTYTGSGGRDLSGNKRTAEQSCDQKLTNTNRALALNCFAPINDQEGAEAKDWRSGKPVRVVRNVKGGKNSKYAPAEGNRYDGIYKVVKYWPEKGKSGFLVWRYLLRRDDDEPGPWTKEGKDRIKKLGLTMQYPEGYLEALANREREKENSKREEEEQQEGGFASPRTGKGKWKRKSAGGGPSRAGSPRRTSKKTKVEPYSLTAQQSSLIREDKSNAKLWNEVLASLKDRPASGSPFQLFLSKVEETFQCICCQELVFRPITTVCQHNVCKDCLDRSFRAQVFSCPACRYDLGRSYAMQVNQPLQTVLNQLFPGYGNGR
For the molecule B3, the binding entry in test [1] is “binds”.
